Measurements reported in US20030087913A1 (Schering AG, priority 2001, published 2003).

Experiments:
[1] = Measurement of the active ingredient release (one-compartment method, vane-stirrer apparatus, USP XXIV); assay type: physicochemical; settings: pH 6.8

Question: Which solubility (physchem; pH 1, simulated gastric fluid) does the source give for `C[C@@H]1CN(Cc2ccc(F)cc2)CCN1C(=O)COc1ccc(Cl)cc1NC(N)=O.O=S(=O)(O)O` [piperazine urea-hydrogen sulfate, (2R)-1-((4-chloro-2-(ureido)phenoxy)methyl)carbonyl-2-methyl-4-(4-fluorobenzyl)piperazine hydrogen sulfate] here?
Answer: Its solubility is roughly 5000 µg/mL.

Question: And the solubility (physchem; pH 6.35, aqueous buffer)?
Answer: The solubility was roughly 150 µg/mL.

Question: What about the solubility (physchem; pH 6.8, aqueous buffer) of the same compound?
Answer: Its solubility is roughly 100 µg/mL.

Question: What about the “effect of addition of the surfactant SDS on the release” value [1] of the same compound?
Answer: Its value is “only in a slight increase in the release”.
